Source: PMC5963591, “Bitopic Binding Mode of an M1 Muscarinic Acetylcholine Receptor Agonist Associated with Adverse Clinical Trial Outcomes” (Molecular Pharmacology, 2018)

Target: T1, human M1 mAChR (Homo sapiens, UniProt P11229)
T1 sequence (P11229 1-460): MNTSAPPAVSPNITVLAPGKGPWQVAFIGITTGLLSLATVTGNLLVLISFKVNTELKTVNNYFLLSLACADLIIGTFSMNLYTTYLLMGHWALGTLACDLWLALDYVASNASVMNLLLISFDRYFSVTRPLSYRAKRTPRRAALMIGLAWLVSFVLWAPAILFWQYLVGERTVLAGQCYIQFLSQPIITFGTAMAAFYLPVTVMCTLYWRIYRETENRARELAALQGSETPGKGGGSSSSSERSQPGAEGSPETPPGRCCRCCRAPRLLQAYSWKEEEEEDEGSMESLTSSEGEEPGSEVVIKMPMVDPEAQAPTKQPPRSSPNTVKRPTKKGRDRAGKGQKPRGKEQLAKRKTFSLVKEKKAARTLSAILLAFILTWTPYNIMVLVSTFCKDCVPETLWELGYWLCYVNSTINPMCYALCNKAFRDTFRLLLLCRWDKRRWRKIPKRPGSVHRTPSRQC
Assay: [3H]-NMS binding interaction studies with BQCA
Set-up: expressed in transfected cells; host or cells: CHO Flp-In
Conditions: BQCA potentiation of ACh-mediated displacement of [^3H]-NMS
Experimental: Prior to the experiment, cells were washed with 100 μl phosphate-buffered saline. […] Binding was terminated by rapid aspiration followed by two washes with 200 μl ice-cold 0.9% NaCl. Bound radioactivity was determined by liquid scintillation (Ultima Gold; PerkinElmer, Boston, MA) counting. Nonspecific binding was determined in the presence of 10 μM atropine.

COc1ccc(Cn2cc(C(=O)O)c(=O)c3ccccc32)cc1 [BQCA, benzyl quinolone carboxylic acid, reference compound]
positive cooperativity for ACh binding: approximately 35 fold
